Experimental data taken from patent US11312984B2, “High-purity steviol glycosides” (PURECIRCLE SDN BHD, priority 2013, dated 2022).

Assay: Conversion of Rebaudioside A to Rebaudioside M with in situ prepared UDP-glucose using UGTSL2, UGT76G1var94 and AtSUS
Type: biochemical
Details: after 21 h of reaction time, 0.5 mM Rebaudioside A
Procedure: The reaction was performed at 1 mL scale using 100 mM of sucrose, 3 mM of MgCl2, 0.25 mM of UDP and 0.5 mM of Rebaudioside A in potassium phosphate buffer (50 mM final concentration, pH 7.5). The reaction was started by adding 15 μL of UGTSL2 (see EXAMPLE 27) lysate (2 U/mL), 150 μL of UGT76G1var94 (see EXAMPLE 26) (2.5 U/mL) and 15 μL of AtSUS (see EXAMPLE 42) (400 U/mL). The reaction was followed by HPLC after quenching 125 μL samples with 10 μL of 2 N H2SO4 and 115 μL of 60% methanol. 68% of Rebaudioside M and 26% of Rebaudioside M2 were obtained after 21 h of reaction time.

Structure (SMILES) | Rebaudioside M2 obtained | Rebaudioside M obtained
C=C1C[C@@]23CC[C@H]4[C@@](C)(CCC[C@@]4(C)C(=O)OC4OC(COC5OC(CO)C(O)C(O)C5O)C(O)C(O)C4OC4OC(CO)C(O)C(O)C4O)[C@@H]2CCC1(OC1OC(CO)C(O)C(OC2OC(CO)C(O)C(O)C2O)C1OC1OC(CO)C(O)C(O)C1O)C3 (stereo partly drawn) [reb M2, 13-[(2-O-β-D-glucopyranosyl-3-O-β-D-glucopyranosyl-β-D-glucopyranosyl)oxy] ent-kaur-16-en-19-oic acid-[(2-O-β-D-glucopyranosyl-6-O-β-D-glucopyranosyl-β-D-glucopyranosyl) ester]] | 26% | –
C=C1C[C@@]23CC[C@H]4[C@@](C)(CCC[C@@]4(C)C(=O)O[C@@H]4O[C@H](CO)[C@@H](O)[C@H](O[C@@H]5O[C@H](CO)[C@@H](O)[C@H](O)[C@H]5O)[C@H]4O[C@@H]4O[C@H](CO)[C@@H](O)[C@H](O)[C@H]4O)[C@@H]2CC[C@]1(O[C@@H]1O[C@H](CO)[C@@H](O)[C@H](O[C@@H]2O[C@H](CO)[C@@H](O)[C@H](O)[C@H]2O)[C@H]1O[C@@H]1O[C@H](CO)[C@@H](O)[C@H](O)[C@H]1O)C3 [reb M, rebaudioside M] | – | 68%
